{"source": "the supplement of paper PMC3334620", "note": "In all, about 33,000 sequences were measured (“E-score (-0.5 to 0.5)”: median about -0.0034, highest 2% from about 0.25 on). This is one part of the list."}
{"molecular_target": "T1, Yap3 (UniProt P38749)", "T1 sequence": "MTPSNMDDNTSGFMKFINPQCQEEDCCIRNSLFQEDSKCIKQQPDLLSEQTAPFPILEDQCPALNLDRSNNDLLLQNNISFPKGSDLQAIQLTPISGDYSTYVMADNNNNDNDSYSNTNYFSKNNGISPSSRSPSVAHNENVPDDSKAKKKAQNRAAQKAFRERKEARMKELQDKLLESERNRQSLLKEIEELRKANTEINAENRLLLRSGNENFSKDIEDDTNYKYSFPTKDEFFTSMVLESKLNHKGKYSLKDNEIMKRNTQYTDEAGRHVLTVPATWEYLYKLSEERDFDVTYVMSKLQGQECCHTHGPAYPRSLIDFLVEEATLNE", "assay": "PBM E-score (8-mer binding enrichment) (E-score (-0.5 to 0.5)); higher = stronger / more preferred TF binding", "settings": "protein concentration: 100 nM; construct: GST-full length", "outline": "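Using PURExpress in vitro transcription/translation, GST-tagged yeast transcription factors were made in full-length or DNA-binding-domain form. These were applied at about 100-200 nM to double-stranded universal all-10-mer Agilent arrays, and bound protein was detected with fluorescent anti-GST. Scans were normalised with masliner before the Universal PBM Analysis Suite assigned E-scores to ungapped eight-base words pooled with their reverse complements.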"}
{"sequence": "ACTATGAA", "PBM E-score": 0.145}
{"sequence": "CGCTAGAA", "PBM E-score": -0.125}
{"sequence": "ATGGCGGG", "PBM E-score": -0.0503}
{"sequence": "AAATACTC", "PBM E-score": 0.0374}
{"sequence": "GCGTCTAA", "PBM E-score": -0.16}
{"sequence": "AGGTCGCG", "PBM E-score": -0.012}
{"sequence": "ACCTACCA", "PBM E-score": -0.0858}
{"sequence": "CGAGAGGC", "PBM E-score": -0.258}
{"sequence": "TCGTGGCA", "PBM E-score": -0.0175}
{"sequence": "GCGCTTAA", "PBM E-score": 0.00056}
{"sequence": "CGACTTCC", "PBM E-score": -0.0336}
{"sequence": "CGGCAGCA", "PBM E-score": -0.0996}
{"sequence": "GCTGTATA", "PBM E-score": 0.0379}
{"sequence": "ACACTGGA", "PBM E-score": 0.0886}
{"sequence": "AATCAGCG", "PBM E-score": 0.157}
{"sequence": "AACGCCGT", "PBM E-score": -0.105}
{"sequence": "AAATACCT", "PBM E-score": 0.084}
{"sequence": "CCTATTGC", "PBM E-score": -0.0755}
{"sequence": "GATCCCAA", "PBM E-score": -0.0479}
{"sequence": "CGACCTGA", "PBM E-score": -0.0052}
{"sequence": "AAATTCTC", "PBM E-score": -0.11}
{"sequence": "GCATGGGA", "PBM E-score": -0.197}
{"sequence": "AAGGAGGA", "PBM E-score": -0.202}
{"sequence": "GAAGGTTA", "PBM E-score": 0.0129}
{"sequence": "CCCTTGAG", "PBM E-score": -0.0974}
{"sequence": "GCCACTGA", "PBM E-score": -0.169}
{"sequence": "ATAACTTC", "PBM E-score": 0.121}
{"sequence": "AACGTCTA", "PBM E-score": -0.122}
{"sequence": "CCATAACG", "PBM E-score": 0.114}
{"sequence": "GAGCCTGA", "PBM E-score": -0.0597}
{"sequence": "GGAAAATA", "PBM E-score": 0.182}
{"sequence": "ACTAACTG", "PBM E-score": 0.245}
{"sequence": "GACATACA", "PBM E-score": 0.256}
{"sequence": "ACCCTCGG", "PBM E-score": -0.284}
{"sequence": "CATACTGA", "PBM E-score": 0.136}
{"sequence": "CATTTGTC", "PBM E-score": 0.0921}
{"sequence": "GTAGAGGA", "PBM E-score": -0.195}
{"sequence": "GCCAGAGA", "PBM E-score": -0.14}
{"sequence": "CATGAGGG", "PBM E-score": -0.0791}
{"sequence": "AGGCCAAA", "PBM E-score": -0.0322}
{"sequence": "CAAGGAAC", "PBM E-score": 0.078}
{"sequence": "CTGTCGAA", "PBM E-score": -0.161}
{"sequence": "CGTTTGCA", "PBM E-score": 0.0897}
{"sequence": "CAATGCTA", "PBM E-score": -0.00529}
{"sequence": "CCGCTCGC", "PBM E-score": -0.178}
{"sequence": "AGCTAACG", "PBM E-score": -0.0112}
{"sequence": "AGTGATAA", "PBM E-score": 0.107}
{"sequence": "AAAGCAAG", "PBM E-score": 0.206}
{"sequence": "AAGATTCG", "PBM E-score": 0.167}
{"sequence": "GCTTAAGA", "PBM E-score": -0.0272}
{"sequence": "ACCCATAG", "PBM E-score": -0.286}
{"sequence": "TCAGCCGA", "PBM E-score": -0.134}
{"sequence": "AAGACCTC", "PBM E-score": -0.217}
{"sequence": "AAGCGCTG", "PBM E-score": -0.0246}
{"sequence": "CTCAAGGA", "PBM E-score": 0.0643}
{"sequence": "ATATAAGA", "PBM E-score": 0.346}
{"sequence": "AAATAAGA", "PBM E-score": 0.164}
{"sequence": "ACCCGTTA", "PBM E-score": -0.0249}
{"sequence": "GCAGGACA", "PBM E-score": -0.0634}
{"sequence": "CCTCGCTA", "PBM E-score": -0.143}
{"sequence": "CTGTTACA", "PBM E-score": 0.0405}
{"sequence": "GAAGATCC", "PBM E-score": -0.191}
{"sequence": "CCCGCGAA", "PBM E-score": 0.0694}
{"sequence": "ATCGTAAG", "PBM E-score": 0.137}
{"sequence": "CGTGCATC", "PBM E-score": -0.223}
{"sequence": "AGTAAAAC", "PBM E-score": -0.0237}
{"sequence": "ACTGCCGC", "PBM E-score": 0.00407}
{"sequence": "CATAGAAC", "PBM E-score": 0.0395}
{"sequence": "GTGCTCTA", "PBM E-score": -0.0224}
{"sequence": "AGATAACA", "PBM E-score": 0.135}
{"sequence": "CAGCTAGA", "PBM E-score": -0.127}
{"sequence": "AACGTTTG", "PBM E-score": -0.00788}
{"sequence": "CCCATGAA", "PBM E-score": -0.0988}
{"sequence": "ATGCAGAC", "PBM E-score": -0.0609}
{"sequence": "TCAGGCAA", "PBM E-score": 0.00783}
{"sequence": "AACAAATG", "PBM E-score": 0.161}
{"sequence": "CCTTTTAC", "PBM E-score": 0.0902}
{"sequence": "GGACATAC", "PBM E-score": 0.00756}
{"sequence": "ACTTAGAT", "PBM E-score": 0.231}
{"sequence": "CTTCCAAA", "PBM E-score": 0.0319}
{"sequence": "CGGAGCTC", "PBM E-score": -0.292}
{"sequence": "GACTCGCA", "PBM E-score": -0.0178}
{"sequence": "GATAACGA", "PBM E-score": 0.174}
{"sequence": "CAGCAGCA", "PBM E-score": -0.0247}
{"sequence": "AAGTCTGG", "PBM E-score": -0.0153}
{"sequence": "ATCATATG", "PBM E-score": 0.203}
{"sequence": "AGTCTGCA", "PBM E-score": -0.0452}
{"sequence": "CCCTCTAG", "PBM E-score": -0.223}
{"sequence": "CAAAATTG", "PBM E-score": 0.184}
{"sequence": "CACAATGA", "PBM E-score": 0.181}
{"sequence": "ATCCATCG", "PBM E-score": -0.128}
{"sequence": "ATGTAGAG", "PBM E-score": -0.0296}
{"sequence": "CCCTCTGC", "PBM E-score": -0.322}
{"sequence": "CCGATACA", "PBM E-score": 0.0602}
{"sequence": "ACTAGTTG", "PBM E-score": -0.0214}
{"sequence": "GTACAGAC", "PBM E-score": -0.0267}
{"sequence": "CACAGTAG", "PBM E-score": 0.0618}
{"sequence": "CCATCTTA", "PBM E-score": 0.00932}
{"sequence": "CGAGGGAG", "PBM E-score": -0.23}
{"sequence": "AATCGGTC", "PBM E-score": -0.086}
{"sequence": "AATGGCGG", "PBM E-score": -0.159}
{"sequence": "CTCAAACC", "PBM E-score": -0.0437}
{"sequence": "ATGCTGCG", "PBM E-score": -0.0856}
{"sequence": "ACCTCGTA", "PBM E-score": 0.109}
{"sequence": "CGCCACAC", "PBM E-score": 0.0468}
{"sequence": "ATAAAACA", "PBM E-score": 0.154}
{"sequence": "CCATAGCA", "PBM E-score": -0.0905}
{"sequence": "GACTGCGC", "PBM E-score": -0.117}
{"sequence": "AACCCGGC", "PBM E-score": -0.249}
{"sequence": "AGTCGGGA", "PBM E-score": -0.136}
{"sequence": "CATACTCA", "PBM E-score": 0.043}
{"sequence": "CTTTAAAC", "PBM E-score": -0.0648}
{"sequence": "CGGATGAA", "PBM E-score": 0.265}
{"sequence": "GCTCTTCA", "PBM E-score": -0.117}
{"sequence": "TAGGGGCA", "PBM E-score": 0.0604}
{"sequence": "CGGTCTAC", "PBM E-score": 0.0134}
{"sequence": "AACAATCG", "PBM E-score": 0.0368}
{"sequence": "GATAACCA", "PBM E-score": 0.161}
{"sequence": "CGTTAGTA", "PBM E-score": 0.241}
{"sequence": "ATAGGCGA", "PBM E-score": 0.0427}
{"sequence": "GGCTGACC", "PBM E-score": -0.206}
{"sequence": "TCGAGCAA", "PBM E-score": 0.02}
{"sequence": "AGGACATG", "PBM E-score": -0.00179}
{"sequence": "CCTTAAGC", "PBM E-score": -0.0989}
{"sequence": "CGACGAGC", "PBM E-score": -0.079}
{"sequence": "ACTGGGGC", "PBM E-score": -0.171}
{"sequence": "TCGGAGAA", "PBM E-score": -0.172}
{"sequence": "ACGCGGGG", "PBM E-score": -0.0549}
{"sequence": "CACTGCTA", "PBM E-score": 0.025}
{"sequence": "CCCCTAGC", "PBM E-score": -0.335}
{"sequence": "GGCACGCA", "PBM E-score": -0.0758}
{"sequence": "ACAGTAAC", "PBM E-score": 0.188}
{"sequence": "CAATCCTA", "PBM E-score": -0.0392}
{"sequence": "AGTCGGGG", "PBM E-score": -0.205}
{"sequence": "AGACCTAG", "PBM E-score": -0.0688}
{"sequence": "AACTAGTG", "PBM E-score": -0.0582}
{"sequence": "CGTCCGAG", "PBM E-score": -0.0404}
{"sequence": "CCGGCCAC", "PBM E-score": -0.174}
{"sequence": "AAGGGCGC", "PBM E-score": -0.115}
{"sequence": "AGGTATGC", "PBM E-score": 0.142}
{"sequence": "ACTAAGTA", "PBM E-score": 0.124}
{"sequence": "AACACGGA", "PBM E-score": 0.0134}
{"sequence": "ATAGTGCG", "PBM E-score": 0.053}
{"sequence": "CATCTACC", "PBM E-score": 0.145}
{"sequence": "GACAGGTC", "PBM E-score": -0.226}
{"sequence": "GCAGGCGA", "PBM E-score": -0.142}
{"sequence": "CGGACTTA", "PBM E-score": -0.0638}
{"sequence": "CAGCGTTA", "PBM E-score": 0.00477}
{"sequence": "TAAATAAA", "PBM E-score": 0.282}
{"sequence": "GAAGATAC", "PBM E-score": 0.165}
{"sequence": "TAATGTCA", "PBM E-score": 0.151}
{"sequence": "CCCACCCA", "PBM E-score": -0.0422}
{"sequence": "AACTAGGA", "PBM E-score": 0.0985}
{"sequence": "CTATTTGA", "PBM E-score": 0.27}
{"sequence": "AGAACTTC", "PBM E-score": -0.0782}
{"sequence": "GCTAGGCC", "PBM E-score": -0.229}
{"sequence": "AACTATGG", "PBM E-score": -0.0679}
{"sequence": "AGTATTAT", "PBM E-score": 0.1}
{"sequence": "AAAGGTTG", "PBM E-score": -0.0373}
{"sequence": "CCTGACGC", "PBM E-score": -0.175}
{"sequence": "CAAAAATG", "PBM E-score": 0.126}
{"sequence": "AGGACAGG", "PBM E-score": -0.206}
{"sequence": "CCGACCCC", "PBM E-score": -0.364}
{"sequence": "AAGGCTCC", "PBM E-score": -0.321}
{"sequence": "CTTGTCTA", "PBM E-score": 0.018}
{"sequence": "AACGAACG", "PBM E-score": -0.00775}
{"sequence": "AAATACGT", "PBM E-score": 0.187}
{"sequence": "CTCTGCGA", "PBM E-score": -0.0183}
{"sequence": "CTCGTTAC", "PBM E-score": 0.143}
{"sequence": "TATGTCGA", "PBM E-score": 0.151}
{"sequence": "CTTTACAA", "PBM E-score": -0.009}
{"sequence": "CTTCTTGA", "PBM E-score": 0.0155}
